Measured values from PubChem BioAssay AID2685 (National Center for Advancing Translational Sciences (NCATS), 2010).
This is one part of the list. Further columns of the screen follow, without active or inactive calls. Compounds called inactive in the main read-out are mostly missing here. Potencies come from curve fits of mixed quality, noted in brackets.

Experiment: qHTS Assay for Lipid Storage Modulators in Drosophila S3 Cells;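 as to cell number change: cells counted by Cell Tracker Red CMTPX staining in the red channel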
Conditions: BODIPY lipid droplet fluorescence, 18-24 h; for cell number change: measured here: cell count max response, cells fed with added oleic acid
Procedure, shortened: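 Laser-scanning cytometry quantifies lipid droplet accumulation (500–530 nm total intensity; droplet/cell object ratio) in oleic acid-fed (400 uM added) Drosophila S3 cells treated with a concentration series. 20 uM Triacsin C defined 100% inhibition.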

[1] = measured here: cell number channel AC50, cells fed with added oleic acid
[2] = measured here: lipid fluorescence (Fed channel) AC50, cells fed with added oleic acid

Row | SMILES | cell number change [%] | AC50 [1] | AC50 [2]
1 | COc1ccc(C2(C)NC(=O)N(CC(=O)Nc3ccc4[nH]c(=O)[nH]c4c3)C2=O)cc1 (centres undefined) | -16.5 |  | 
2 | CC(=O)Oc1cc(OC(C)=O)c2c(C)cc(=O)oc2c1 | 0.421 |  | 
3 | CN1N=C(c2ccc(F)c(F)c2)CSC1=NCc1ccccc1 | 67.4 | 20.6 µM [rising, single point] | 0.58 µM [falling, single point]
4 | COc1ccc2[nH]c(C)c(CCNC(=S)Nc3cccc(C)c3)c2c1 | 16.4 |  | 13 µM [rising, partial curve, poor fit]
5 | O=[N+]([O-])c1cccc(N=NN(CCO)c2cccc([N+](=O)[O-])c2)c1 | 43.6 | 8.2 µM [rising, partial curve] | 6.51 µM [rising, single point]
6 | Cc1ccc(NC(=O)c2ccc(NS(=O)(=O)c3cccc4cccnc34)cc2)cc1 | 21.9 |  | 25.9 µM [rising, single point]
7 | CCC(=O)c1ccc(OCC(O)Cn2c(C)nc3ccccc32)cc1 (centres undefined) | -107 | 29.1 µM [falling, single point] | 8.2 µM [falling, partial curve]
8 | COc1ccc(OC)c(C(C[N+](=O)[O-])c2c(C)cc3ccccn23)c1 (centres undefined) | -22.9 |  | 
9 | O=C(/C=C/c1ccc([N+](=O)[O-])cc1)NCCc1ccccc1 | 33.5 | 32.6 µM [rising, single point] | 32.6 µM [rising, single point]
10 | CCCN(CC(=O)Nc1ccc(F)c(F)c1F)C(=O)CCc1nc2ccccc2c(=O)[nH]1 | 48.3 | 25.9 µM [rising, single point] | 
11 | Cc1ccc(C(=O)Nc2nnc(C3=COCCO3)o2)cc1C | 5.6 |  | 
12 | CCOc1cc(C(C(=O)NCC2CCCO2)N(C(=O)Cn2nnc3ccccc32)c2ccccc2C)ccc1O (centres undefined) | 6.58 |  | 
13 | CC(C)N(C(=S)Nc1cccnc1)c1ccccc1 | 15.2 |  | 29.1 µM [rising, single point]
14 | Cc1cc(C)nc(-n2nc(C)cc2NC(=O)c2cccc(S(=O)(=O)N3CCCCC3)c2)n1 | 10.5 |  | 0.82 µM [rising, full curve]
15 | O=C(NNC(=O)c1sc2ccccc2c1Cl)Nc1ccc(Cl)cc1 | 80.7 | 29.1 µM [rising, single point] | 
16 | O=C(O)c1cc(Cl)c(Cl)cc1C(=O)Nc1cccnc1 | 21.5 |  | 29.1 µM [falling, single point]

In a second layout: entries from further up.
Row,SMILES,cell number change [%],AC50 [1],AC50 [2]
10,CCCN(CC(=O)Nc1ccc(F)c(F)c1F)C(=O)CCc1nc2ccccc2c(=O)[nH]1,48.3,"25.9 µM [rising, single point]",
13,CC(C)N(C(=S)Nc1cccnc1)c1ccccc1,15.2,,"29.1 µM [rising, single point]"

More results follow.

Row | SMILES | cell number change [%] | AC50 [1] | AC50 [2]
17 | CCN(CC(=O)Nc1c(F)cccc1F)C(=O)CCc1nc2ccccc2c(=O)[nH]1 | 14.5 |  | 
18 | CCCc1cc(=O)oc2cc(C)cc(OCC(=O)O)c12 | -32.6 | 0.0291 µM [falling, full curve, poor fit] | 
19 | Cc1ccc(-c2nnc(CCC(=O)NCc3csc(C)n3)o2)s1 | 19.2 | 4.11 µM [rising, single point] | 
20 | COc1ccc(C)cc1S(=O)(=O)N1CCC2(CC1)OCCN2S(=O)(=O)c1cccs1 | 76.1 | 7.31 µM [rising, partial curve] | 
21 | CC1CCc2c(nc3ncnn3c2N2CCN(c3ccccc3F)CC2)C1 (centres undefined) | 76.2 | 29.1 µM [rising, single point] | 
22 | Cc1ccc(C)c(Nc2nc3c(S(=O)(=O)c4ccccc4)nnn3c3ccccc23)c1 |  | 0.103 µM [rising, full curve, poor fit] | 0.13 µM [rising, full curve, poor fit]
23 | CCC(C)(C)n1nnnc1C(c1cccc(C#N)c1)N1CCN(c2cc(C)ccc2C)CC1 (centres undefined) | -6.1 |  | 29.1 µM [falling, single point]
24 | COc1ccc(C2=NO[C@@H]3C(=O)N(Cc4ccccc4)C(=O)[C@H]23)c(OC)c1 | 1.17 |  | 0.082 µM [rising, full curve, poor fit]
25 | COc1ccc(-n2c(Cn3c(=O)sc4ccccc43)nnc2SCC(=O)N2CCCC2)cc1 | 20.4 |  | 
26 | CCn1nc(NC(C)=O)c2cc3ccc(C)cc3nc21 | 21.3 |  | 4.61 µM [rising, partial curve]
27 | CCN(CC)S(=O)(=O)c1ccc(N(C)Cc2ccc(C(F)(F)F)cc2)nc1 | -35.1 | 29.1 µM [falling, single point] | 
28 | COc1ccc(NC(=O)N(CCC(C)C)C(C)c2ccccn2)c(OC)c1 (centres undefined) | -58.3 | 10.3 µM [falling, partial curve] | 0.651 µM [falling, full curve, poor fit]
29 | CSc1sc(C(=O)NNC(C)=O)c2c1C=CCC2 | -24.7 |  | 4.61 µM [rising, single point]
30 | O=C1C=C(NCc2ccco2)C2(CCCCC2)O1 | -19 |  | 6.51 µM [falling, single point]
31 | CCOC(=O)c1ccc(CSc2n[nH]c(C)n2)o1 | -5.19 |  | 
